The results in this text go back to doi:10.1101/560391 (bioRxiv, 2019).

Like-named read-outs stand apart in the source and are kept apart here. These are yes or no findings as the source states them, for the method shown. Some binding calls cover weakened binding; strength is not graded here. For part of these data: Sequences can lack the tags named with a protein.

For assay [1], the target named is CAL1(1-160)-GFP-LacIw (Drosophila) (UniProt Q9VEN2). The assay can be described thus: LacI/LacO tethering and co-recruitment in cells.
In assay [2] the target is CAL1(1-407)-GFP-LacIw (Drosophila) (UniProt Q9VEN2). The assay can be described thus: LacI/LacO tethering and co-recruitment in cells.
Assay [3] has as its target dH3^L1α2 chimera, GFP-LacI fusion (Drosophila) (UniProt P02299+Q9V6Q2). The assay can be described thus: LacI/LacO tethering and co-recruitment in cells.
Assay [4] deals with dCENP-A-GFP-LacI (Drosophila) (UniProt Q9V6Q2). The assay can be described thus: LacI/LacO tethering and co-recruitment in cells.
The target in assay [5] is T1, GFP-LacI-dCENP-C (Drosophila) (UniProt Q9VHP9).
T1 sequence: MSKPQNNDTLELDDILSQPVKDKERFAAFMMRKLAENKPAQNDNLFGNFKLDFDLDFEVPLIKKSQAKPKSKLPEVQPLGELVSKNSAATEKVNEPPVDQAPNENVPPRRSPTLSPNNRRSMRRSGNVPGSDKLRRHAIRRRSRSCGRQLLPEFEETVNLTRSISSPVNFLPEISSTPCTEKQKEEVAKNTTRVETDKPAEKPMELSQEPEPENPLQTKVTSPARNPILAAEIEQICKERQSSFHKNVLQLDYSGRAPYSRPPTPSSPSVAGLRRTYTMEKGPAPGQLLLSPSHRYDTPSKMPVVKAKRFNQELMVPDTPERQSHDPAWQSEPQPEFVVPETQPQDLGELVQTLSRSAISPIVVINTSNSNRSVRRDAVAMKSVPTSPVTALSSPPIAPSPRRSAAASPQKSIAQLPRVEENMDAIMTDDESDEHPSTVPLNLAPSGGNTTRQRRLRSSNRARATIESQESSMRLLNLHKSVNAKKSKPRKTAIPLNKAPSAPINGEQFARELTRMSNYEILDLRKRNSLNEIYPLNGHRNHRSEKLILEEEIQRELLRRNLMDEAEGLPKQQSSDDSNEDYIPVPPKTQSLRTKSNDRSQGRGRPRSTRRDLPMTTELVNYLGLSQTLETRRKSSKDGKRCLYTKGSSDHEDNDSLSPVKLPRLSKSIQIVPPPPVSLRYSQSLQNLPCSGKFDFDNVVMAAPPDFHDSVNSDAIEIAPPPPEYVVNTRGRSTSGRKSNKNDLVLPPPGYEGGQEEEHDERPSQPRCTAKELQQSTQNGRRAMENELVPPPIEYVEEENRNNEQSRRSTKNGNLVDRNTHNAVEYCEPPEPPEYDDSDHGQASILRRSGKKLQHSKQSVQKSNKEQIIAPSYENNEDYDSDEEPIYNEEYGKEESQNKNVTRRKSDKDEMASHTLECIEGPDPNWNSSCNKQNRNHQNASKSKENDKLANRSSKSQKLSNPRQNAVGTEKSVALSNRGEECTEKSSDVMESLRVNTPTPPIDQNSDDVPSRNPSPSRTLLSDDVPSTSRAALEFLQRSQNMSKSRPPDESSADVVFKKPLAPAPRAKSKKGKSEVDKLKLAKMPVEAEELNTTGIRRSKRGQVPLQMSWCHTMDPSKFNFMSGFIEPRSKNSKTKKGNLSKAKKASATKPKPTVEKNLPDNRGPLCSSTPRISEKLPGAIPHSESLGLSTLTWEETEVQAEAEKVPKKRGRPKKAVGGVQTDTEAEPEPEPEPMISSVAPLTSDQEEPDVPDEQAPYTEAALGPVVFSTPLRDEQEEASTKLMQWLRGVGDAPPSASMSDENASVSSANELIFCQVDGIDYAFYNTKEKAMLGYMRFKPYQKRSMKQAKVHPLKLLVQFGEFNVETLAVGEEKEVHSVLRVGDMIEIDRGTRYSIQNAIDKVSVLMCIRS
Description: LacI/LacO tethering and co-recruitment in cells.

For assay [6], the target named is dH3^L1α2+C chimera, GFP-LacI fusion (Drosophila) (UniProt P02299+Q9V6Q2). Description: LacI/LacO tethering and co-recruitment in cells.
The target in assay [7] is T2, recombinant CAL1(1-160) (Drosophila), Q9VEN2.
T2 chain: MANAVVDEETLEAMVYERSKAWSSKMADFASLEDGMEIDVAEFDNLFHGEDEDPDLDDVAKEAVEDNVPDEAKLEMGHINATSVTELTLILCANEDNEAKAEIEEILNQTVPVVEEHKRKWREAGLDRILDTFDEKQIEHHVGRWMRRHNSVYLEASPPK
Description: SEC-MALS. The note with it: remark: other sources report otherwise. On the technique in general: Size exclusion chromatography separates by hydrodynamic size, large species first.

The target of assay [8] is dCENP-A-GFP-LacI (Drosophila) (UniProt Q9V6Q2). Description: LacI/LacO tethering and co-recruitment in cells. The source holds these as a separate data set.
For assay [9], the target named is CAL1-GFP-LacI (Drosophila) (UniProt Q9VEN2). The assay can be described thus: LacI/LacO tethering and co-recruitment in cells.
The target in assay [10] is GFP-LacI-CAL1 (Drosophila) (UniProt Q9VEN2). The assay can be described thus: LacI/LacO tethering and co-recruitment in cells.
In assay [11] the target is T3, GFP-LacI-dCENP-C (Drosophila), Q9VHP9.
T3 chain: T1 sequence
Description: LacI/LacO tethering and co-recruitment in cells. The conditions noted are these: remark: other sources report otherwise.

Assay [12] concerns the target T4, dCENP-A (Drosophila), Q9V6Q2.
T4 chain: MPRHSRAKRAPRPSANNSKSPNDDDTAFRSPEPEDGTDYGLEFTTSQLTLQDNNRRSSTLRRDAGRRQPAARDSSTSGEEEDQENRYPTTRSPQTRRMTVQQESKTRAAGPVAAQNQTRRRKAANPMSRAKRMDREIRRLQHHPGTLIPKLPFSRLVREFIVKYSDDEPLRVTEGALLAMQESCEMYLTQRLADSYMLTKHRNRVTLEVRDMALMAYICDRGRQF
The assay can be described thus: LacI/LacO tethering and co-recruitment in cells. The note with it: remark: other sources report otherwise.

Consider dCENP-A (from UniProt Q9V6Q2 1-225), for which the binding result in [1] and in assay [2] was “binds” each time.
Turning to CAL1-V5 (from UniProt Q9VEN2 1-979), the binding entry in assay [3] is given as “binds weakly”; in [4] it was “binds”; in assay [5] it was “binds”; in assay [6] it was “binds”.

B1: recombinant CAL1(1-160), Q9VEN2 1-160 (domain or fragment)
chain: T2 chain
Regarding B1, in assay [7], the binding entry is listed as “no binding”.

B2: HA-dCENP-C (protein, UniProt Q9VHP9 1-1411)
chain: T1 sequence
With B2, the binding entry in [8], in assay [9] and in [10] was “binds weakly” throughout.

B3: HA-dCENP-C, Q9VHP9 1-1411 (protein)
chain: T1 sequence
For B3, the binding entry in [11] and in [12] was “binds” throughout.
